Laboratory results from US12172978B2, “Ether compound and harmful arthropod-controlling composition containing same” (SUMITOMO CHEMICAL COMPANY, LIMITED, priority 2019, dated 2024).
Some entries share one result that the patent states for a list of compounds. At least one compound was matched to its structure with a doubt left.

system: cotton aphids (Aphis gossypii); assay: Test Example 1: cotton aphid foliar spray test on cucumber seedling (test method 1); format: in vivo; settings: 500 ppm, sprayed 10 mL/seedling on cucumber, all stages of life, after 5 days, 25° C.

SMILES	controlling value [%]
CCS(=O)(=O)c1cc(C2(C#N)CCCC2)cnc1Oc1cc(OCC(F)(F)C(F)(F)F)ccn1 [compound 19]	≥ 90
CCS(=O)(=O)c1cc(C2(C#N)CCC2)cnc1Oc1cc(OCC(F)(F)C(F)(F)F)ncn1 [compound 21]	≥ 90
CCS(=O)(=O)c1cc(C2(C#N)CCCCC2)cnc1Oc1cc(OCC(F)(F)C(F)(F)F)ccn1 [compound 20]	≥ 90
CCS(=O)(=O)c1cc(C(F)(F)F)cnc1Oc1cc(OCC(F)(F)C(F)(F)F)ncn1 [compound 7]	≥ 90
CCSc1cccnc1Oc1cc(OCC(F)(F)C(F)(F)F)ccn1 [compound 4]	≥ 90
CCS(=O)(=O)c1cc(C2(C#N)CCCCC2)cnc1Oc1cc(OCC(F)(F)C(F)(F)F)ncn1 [compound 23]	≥ 90
CCS(=O)(=O)c1cc(C2(C#N)CC2)cnc1Oc1cc(OCC(F)(F)C(F)(F)F)ncn1 [compound 18]	≥ 90
CCS(=O)(=O)c1cc(C2CC2)cnc1Oc1cc(OCC(C)(C)C#N)ncn1 [compound 24]	≥ 90
CCS(=O)(=O)c1cc(C2(C#N)CC2)cnc1Oc1cc(OCC(F)(F)C(F)F)ncn1 [compound 28]	≥ 90
CCS(=O)(=O)c1cc(C2(C#N)CC2)cnc1Oc1cc(OCC(F)(F)C(F)(F)F)ccn1 [compound 17]	≥ 90
CC[S+]([O-])c1cccnc1Oc1cc(OCC(F)(F)C(F)(F)F)ccn1 (stereo not drawn) [compound 5]	≥ 90
CCS(=O)(=O)c1cc(Br)cnc1Oc1cc(OCC(F)(F)C(F)(F)F)ncn1 [compound 12]	≥ 90
